Values of other authors in patent publication US7179616B1, “Method for detecting phosphatidylserine on the surface of cells” (University of Notre Dame du Lac, priority 2002, dated 2007).
At least one compound was matched to its structure with a doubt left.

Conditions: cited from earlier work

For `CCCCN1C(=O)C(=C/C=C/C=C2\Oc3ccccc3N2CCCS(=O)(=O)[O-])C(=O)N(CCCC)C1=S.[Na+]` [MC540], the phototoxicity is listed as “phototoxic”.
